For 42 sequences, binding signal results are on record in publication PMC7819943, “Rice protein-binding microarrays: a tool to detect cis-acting elements near promoter regions in rice”.

Some of the results follow.

This test addresses T1, OsSMF1 (Oryza sativa, UniProt Q6ZLB0 1-436).
T1 sequence: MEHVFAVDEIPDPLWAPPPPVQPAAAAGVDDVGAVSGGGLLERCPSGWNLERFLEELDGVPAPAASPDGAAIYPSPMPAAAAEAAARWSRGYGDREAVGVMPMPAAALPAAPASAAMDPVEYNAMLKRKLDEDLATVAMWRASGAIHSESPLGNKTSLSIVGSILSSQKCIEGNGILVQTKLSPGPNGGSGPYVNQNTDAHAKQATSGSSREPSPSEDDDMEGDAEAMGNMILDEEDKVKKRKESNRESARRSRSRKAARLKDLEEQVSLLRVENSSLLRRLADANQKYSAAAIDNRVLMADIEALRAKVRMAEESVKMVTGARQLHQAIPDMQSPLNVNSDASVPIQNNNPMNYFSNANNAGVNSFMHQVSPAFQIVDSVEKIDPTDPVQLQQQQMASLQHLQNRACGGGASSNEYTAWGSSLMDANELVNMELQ
The test is described as follows: protein-binding microarray (RPBM); PBS, 2% BSA, 51.3 ng/ul salmon testes DNA, 50 uM zinc acetate, 200 nM TF, 25 C, 1 h; high values mean tight binding. As to conditions: protein: recombinant; tags: N-terminal polyhistidine and DsRed monomer fusion (pET32a); chain copies: 2; label: CyDye5-dUTP incorporated in the synthesized complementary strand; 3' TTTTT single-stranded linker to array surface; dsDNA, one strand shown. In outline: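 A custom Agilent array was converted to double-stranded form by primer extension with Cy5-dUTP and blocked with 2% BSA. Protein at 200 nM in PBS with 2% BSA, salmon testes DNA and 50 µM zinc acetate was applied for 1 h at 25 °C, followed by washing. The proteins were polyhistidine–DsRed N-terminal fusions of transcription factors, expressed in E. coli BL21-CodonPlus and Ni–NTA-purified. The binding signal is per-feature fluorescence intensity (arbitrary units) from an Axon 4000B scanner.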
Regarding “TTATCCATTTTACCCACTTTGTCCATACCCATTTGTTATGCGGAGTCACCTAGTGCAG”, the binding signal was 3960 fluorescence intensity (a.u.).

With “GCGATGCCTCTGAGAAGGGCGCGTGGACCTCCAGCAGCATCGGAGTCACCTAGTGCAG”, the binding signal was 3540 fluorescence intensity (a.u.).

For the sequence “CCCGTTGTCACCAACCTCCACGCAGGATCCGCACCGCCGCCGGAGTCACCTAGTGCAG”, the binding signal was 4670 fluorescence intensity (a.u.).

“GAGCTCGCCCACTGCCGCCACGTTCCTGCTTCGGCCACCTCGGAGTCACCTAGTGCAG”: the binding signal is 4020 fluorescence intensity (a.u.).

For “CTTCCAGCAAGGTGTGTAGCGTCCACAGGTGTCACCGATGCGGAGTCACCTAGTGCAG”, the binding signal was 4500 fluorescence intensity (a.u.).

For “CAGTGTACTAGTCTATGTACGTGTTGGACTCGTTCTTCTCCGGAGTCACCTAGTGCAG”, the binding signal was 3860 fluorescence intensity (a.u.).

Take “CCACCCTGACATGTGGGGTCCACGTAGATCCTACGCTGATCGGAGTCACCTAGTGCAG”: the binding signal was 11000 fluorescence intensity (a.u.).

On to “AGCGCCTGCCACCCTGACACGTGTCCATCTGTTCGGACAACGGAGTCACCTAGTGCAG”, for which the binding signal was 9180 fluorescence intensity (a.u.).

On to “TAATTTGGGTAATTACTACTGGTAATTGCGTTAATCTGGTCGGAGTCACCTAGTGCAG”, for which the binding signal was 22900 fluorescence intensity (a.u.).

Take “GCATATGGGGCATATATACGTACATGACTGAATCATCGTTCGGAGTCACCTAGTGCAG”: the binding signal is 3250 fluorescence intensity (a.u.).

As for “TATTAGCGTGTGCTATCCACGTGGCAGCCGACGATAAGGTCGGAGTCACCTAGTGCAG”, the binding signal is 10600 fluorescence intensity (a.u.).

Regarding “CACCTCACTCCGCTAGCGCCGCTCTCCCTCCTCACGTCACCGGAGTCACCTAGTGCAG”, the binding signal is 4410 fluorescence intensity (a.u.).

Take “CATGTCTGGACCTGGAGGAGGAGGTCATGGCCTCTACGAGCGGAGTCACCTAGTGCAG”: the binding signal is 33900 fluorescence intensity (a.u.).

Regarding “CATTGTAATCGTTCGATATGATTGTCGATGAACTACATGCCGGAGTCACCTAGTGCAG”, the binding signal was 3320 fluorescence intensity (a.u.).

For “TTTTCAGTGCTCTGCATCACACCATCTGTCATGTCAAGATCGGAGTCACCTAGTGCAG”, the binding signal is 3530 fluorescence intensity (a.u.).

With “TTGGAGGGGAAGCTATCGTGTATCCACTGCGGAGCACGGCCGGAGTCACCTAGTGCAG”, the binding signal was 3650 fluorescence intensity (a.u.).

In the case of “CCTTCCCTTCTTTAGCGCGGCCACGTCGCGGCGCCTCGCGCGGAGTCACCTAGTGCAG”, the binding signal was 6500 fluorescence intensity (a.u.).

“CCTCCCCAACCACCCGCTGTGTCATCTGCGACCTCAATTTCGGAGTCACCTAGTGCAG”: the binding signal was 4520 fluorescence intensity (a.u.).

For “GAAATGGATATGGCGTGGAGTGTTTCATTGCTAGTAGGAGCGGAGTCACCTAGTGCAG”, the binding signal was 3680 fluorescence intensity (a.u.).

With “AGGGGTGAGAATGACACGTGGGGCCATATGTCGGTGGGTCCGGAGTCACCTAGTGCAG”, the binding signal is 6160 fluorescence intensity (a.u.).

In the case of “CATCACACCACACCACACACCGGCCAGCTCAGGAATAGGGCGGAGTCACCTAGTGCAG”, the binding signal is 3440 fluorescence intensity (a.u.).

Regarding “GTATTGTGTCCGGTTTTAACGCCTACGTGGCTTCTTTTGACGGAGTCACCTAGTGCAG”, the binding signal is 18800 fluorescence intensity (a.u.).

As for “CTATTATCATACTCTTTAGTGTGCACGTGTGCTTTATCTCCGGAGTCACCTAGTGCAG”, the binding signal is 5500 fluorescence intensity (a.u.).

As to “CCCACACACCAGGTTCTTGAGAGGGAGATGATGTGTCAATCGGAGTCACCTAGTGCAG”, the binding signal was 6850 fluorescence intensity (a.u.).

Take “GCCTATGTCCAGATTTATTCTACTAGAATGTGTCATATCCCGGAGTCACCTAGTGCAG”: the binding signal is 3470 fluorescence intensity (a.u.).

Consider “CTCTATCTATTCTATTAGAATGCGTCATATCTATATGAAACGGAGTCACCTAGTGCAG”, for which the binding signal was 3740 fluorescence intensity (a.u.).

Take “AGTCGTGTACTCGTGTACTACCAGCAATCTGAAATCTGAACGGAGTCACCTAGTGCAG”: the binding signal is 7600 fluorescence intensity (a.u.).

“TAGATTTGGTCCAGATGGTGCTGATCTGTCGGATTTTGTACGGAGTCACCTAGTGCAG”: the binding signal was 4540 fluorescence intensity (a.u.).

In the case of “ATAGGAAGACTTCGACATTTTCAAACACTTGAGGACAACTCGGAGTCACCTAGTGCAG”, the binding signal is 32600 fluorescence intensity (a.u.).

For the sequence “TGGAAGTGCAAGCATACCGATCCACGTTCACTTATCAGCCCGGAGTCACCTAGTGCAG”, the binding signal was 3430 fluorescence intensity (a.u.).

As to “CTTTCTCCGTTTCTTCCATCTCCGTCAACCTACCGGCGTACGGAGTCACCTAGTGCAG”, the binding signal was 3890 fluorescence intensity (a.u.).

In the case of “AGGCAGGAAGGTACGCAGCCAGGGGTTGTTACGTGGAATACGGAGTCACCTAGTGCAG”, the binding signal was 3220 fluorescence intensity (a.u.).

Take “TAGCGGCAGCTAAGCACACGTGTAGGATCGCCAGGCGCGCCGGAGTCACCTAGTGCAG”: the binding signal is 4880 fluorescence intensity (a.u.).

As to “CGATGGCGTCCTCGGCCTTGGGGAGCAGCAACAGCAGCGACGGAGTCACCTAGTGCAG”, the binding signal was 3770 fluorescence intensity (a.u.).

As to “ATTGGATCCGGGGAGGAGGAGGTGGGGTTCGGTTTCGTGCCGGAGTCACCTAGTGCAG”, the binding signal was 3820 fluorescence intensity (a.u.).

Take “CCCCTGATAATTGCGTCGTTGTACCATGGCTGTGAGGGCTCGGAGTCACCTAGTGCAG”: the binding signal was 3410 fluorescence intensity (a.u.).

As for “AAAGCTCAACATGCATTGAGACACATCACCCTTTAAAACTCGGAGTCACCTAGTGCAG”, the binding signal is 4160 fluorescence intensity (a.u.).

In the case of “ACTTCTGTTTTACCGAAATAACATATTACGTAGAGATTTTCGGAGTCACCTAGTGCAG”, the binding signal was 16800 fluorescence intensity (a.u.).

With “ATCCCCTTCCCACTCCTCGGTGACGCTGCAACCACCTTTCCGGAGTCACCTAGTGCAG”, the binding signal is 6940 fluorescence intensity (a.u.).

Consider “CCTGAAAGATGCATGTTGACTAGCCTTGATGACTACCAGACGGAGTCACCTAGTGCAG”, for which the binding signal was 4300 fluorescence intensity (a.u.).

With “TAATTTGGCCTGGTTATTTGGATGCATCGAAGAGTCCACGCGGAGTCACCTAGTGCAG”, the binding signal was 3340 fluorescence intensity (a.u.).

For the sequence “CTATAGCACAACGACCTTATTCTATCTCTCGTCAACGCTTCGGAGTCACCTAGTGCAG”, the binding signal was 13500 fluorescence intensity (a.u.).
